Measurements as given in PubChem BioAssay AID488840 (Broad Institute, 2010).
About 45 (3%) of roughly 1,400 compounds were called active.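 The calls were made as follows: active = half-maximal dose of signal decrease from fit no higher than ten times the top valid tested dose; inconclusive = fit invalid, or curve flat with 30 to 70% inhibition; inactive = the rest.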 The list shows a part of the results. Measured potencies and affinities stand elsewhere.

By UniProt entry, the sequences of proteins in these tests, tags left out. Where a name states a change or a piece, a line headed by the entry shows the natural chain unless it says otherwise.
UniProt O75164: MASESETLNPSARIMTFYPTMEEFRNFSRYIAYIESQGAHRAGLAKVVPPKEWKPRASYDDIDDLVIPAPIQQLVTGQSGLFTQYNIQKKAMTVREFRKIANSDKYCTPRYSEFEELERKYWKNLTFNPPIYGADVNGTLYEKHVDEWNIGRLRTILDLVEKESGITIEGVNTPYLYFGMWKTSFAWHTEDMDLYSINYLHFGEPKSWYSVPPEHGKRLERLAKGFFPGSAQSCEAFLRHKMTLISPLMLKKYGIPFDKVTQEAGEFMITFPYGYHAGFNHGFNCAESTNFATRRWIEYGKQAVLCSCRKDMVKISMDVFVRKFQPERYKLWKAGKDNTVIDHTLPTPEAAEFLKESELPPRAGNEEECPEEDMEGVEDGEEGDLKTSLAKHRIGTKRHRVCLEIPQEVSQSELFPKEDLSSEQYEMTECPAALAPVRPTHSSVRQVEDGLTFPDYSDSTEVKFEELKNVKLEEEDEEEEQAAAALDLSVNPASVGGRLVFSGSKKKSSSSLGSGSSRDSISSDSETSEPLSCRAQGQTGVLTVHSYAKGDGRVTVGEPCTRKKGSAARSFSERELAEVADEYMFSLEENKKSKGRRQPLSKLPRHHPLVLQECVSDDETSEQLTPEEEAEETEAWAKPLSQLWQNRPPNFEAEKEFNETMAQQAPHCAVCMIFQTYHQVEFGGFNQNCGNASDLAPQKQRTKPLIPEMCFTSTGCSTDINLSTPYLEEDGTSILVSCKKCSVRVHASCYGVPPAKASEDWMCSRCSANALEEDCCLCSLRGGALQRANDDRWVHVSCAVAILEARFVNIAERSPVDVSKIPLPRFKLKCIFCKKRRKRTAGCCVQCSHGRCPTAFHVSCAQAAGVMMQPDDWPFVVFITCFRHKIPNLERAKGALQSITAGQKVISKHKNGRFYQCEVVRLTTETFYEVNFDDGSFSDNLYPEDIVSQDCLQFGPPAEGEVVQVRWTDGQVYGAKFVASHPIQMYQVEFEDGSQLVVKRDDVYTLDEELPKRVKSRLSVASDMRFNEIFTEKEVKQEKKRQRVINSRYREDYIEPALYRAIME

target: Lysine-specific demethylase 4A (Homo sapiens) (UniProt O75164); experiment: inhibition of JMJD2A H3K9me3 demethylation – biochemical, DELFIA europium, cherry-picked samples, selectivity assay for GASC-1 inhibitor project, dose response (AID 488840); settings: GST-JMJD2A(1-420) H3K9me3 demethylation; at 6 µM (top of the series) unless noted;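 also: europium signal reports the dimethyl H3K9 product detected by antibody so inhibitors lower it; 0% = median of neutral control wells and -100% = median of positive control wells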

Activity change, negative = inhibition, inactive:
O=C(Cc1ccccc1Cl)NC1(O)C(=O)c2ccccc2C1=O 3%
Cc1c(C2Nc3ccccc3NC3=C2C(=O)CC(C)(C)C3)cnn1C (configuration not stated) -13.3%
CCOC(=O)C1=C(C)NC(=O)NC1c1ccc(Br)s1 (configuration not stated) -9.77%
Nn1cc(-c2ccccc2)nc1SCC(=O)N1CCN(S(=O)(=O)c2ccc3ccccc3c2)CC1 2.44%
CC1(C)CC[C@]2(CO)CC[C@]3(C)C(=CCC4[C@@]5(C)CC[C@H](O)[C@@](C)(CO)C5CC[C@]43C)[C@@H]2C1 (some centres not stated) 0.503%
COc1ccc(NC(=O)CCc2ccccc2)cc1NC(=O)c1ccco1 -0.171%
CCC(=O)Nc1ccccc1Nc1cc(C#N)c(C#N)cc1[N+](=O)[O-] -1.89%
c1cc2c(cc1-c1csc(NNC3=NCCCCC3)n1)OCCO2 -7.3%
Cc1ccc(S(=O)(=O)N2[C@@H](c3ccc(Br)cc3)C(C(=O)O)=C[C@H]2CC2CCCC2)cc1 1.88%
Cc1cc(C(=O)OCc2nnc(-c3ccccc3)o2)c(C)n1-c1ccccc1 0.787%
O=C(Oc1cccc2cccnc12)c1cccc(N2C(=O)C3C4CCC(C4)C3C2=O)c1 (configuration not stated) 5.55%
CCc1ccc(-c2nc(CN3CCC(C(=O)NCc4ccc(F)cc4)CC3)c(C)o2)cc1 1.84%
COc1ccc(CCN=C(NS(=O)(=O)c2ccc(Cl)cc2)c2ccccc2)cc1 3.62%
CCOC(=O)c1ccc(N2C(=O)C(C)=C(C)C2=O)cc1 0.899%
Cc1cccc(-c2noc(CCC(=O)NC3CCCC3)n2)c1 -1.01%
O=C(CSc1nc(-c2ccccc2)cc(=O)[nH]1)NCc1ccc2c(c1)OCO2 -1.25%
CCC(=O)Nc1ccc(NC(=O)CSc2nnnn2C(C)C)cc1 -1.9%
O=C(/C=C\c1ccc2c(c1)OCO2)NC1(C(=O)Nc2ccc3c(c2)OCO3)CCCCC1 3.58%
CC(C)CC(=O)Nc1ccccc1N1CCOCC1 -1.71%
CCOC(=O)N1CCN(c2ccc(F)cc2[N+](=O)[O-])CC1 -1.33%
Fc1cccc(F)c1/C=N/N1CCOCC1 -1.31%
Oc1cc2c(cc1O)C(c1ccccc1)CNCC2 (configuration not stated) -5.92%
O=C(NCC(c1ccco1)N1CCCCC1)c1ccc(OCc2ccccc2)cc1 (configuration not stated) -0.883%
c1ccc(-c2nc(-c3ccco3)cs2)nc1 1.76%
OCc1ccc(OCCCOc2cccc3cccnc23)cc1 -5.38%
CC1=C(C#N)C(Nc2ccc(C)cn2)(C(F)(F)F)C(=O)N1 (configuration not stated) 1.89%
Nc1nn2c(-c3ccccc3)cc(=O)[nH]c2c1N=Nc1ccc(O)cc1 3.54%
Cc1nnc(SCc2nc3ccccc3[nH]2)s1 3.75%
COC(=O)C(Cc1ccccc1)NC(=O)COc1ccc(C(C)(C)C)cc1 (configuration not stated) 4.08%
CC1Oc2ccccc2N(Cc2ccccc2Cl)C1=O (configuration not stated) -1.07%
CC1C(=O)N(Cc2ccc([N+](=O)[O-])cc2)c2ccccc2N1C(=O)C1CC1 (configuration not stated) 1.19%
COCCCNC(=O)CC1C[C@H](C(=O)N2CCOCC2)[C@@]2(C)c3[nH]c4ccccc4c3CCN2C1=O (some centres not stated) 7.23%
COc1ccc(S(=O)(=O)N2CCC(C(=O)N3CCc4ccccc4C3)CC2)cc1 -0.742%
CC(=O)Nc1sc2c(c1CN1CCN(C)CC1)CCCC2 -1.49%
CCN(C[C@H]1N[C@@](Cc2ccccc2)(C(=O)OC)[C@H]2C(=O)N(C)C(=O)[C@@H]12)S(=O)(=O)c1ccccc1 -3.04%
CCN(Cc1cc2cc(OC)ccc2[nH]c1=O)C(=O)c1ccncc1 3.58%
COCCn1c(SCC(=O)Nc2cc(C(C)(C)C)nn2-c2ccccc2)nc2ccccc2c1=O -2.83%
O=C(C1CCN(S(=O)(=O)c2ccc3ccccc3c2)CC1)N1CCN(c2ncccn2)CC1 1.75%
N=c1n(CC(=O)c2cccc([N+](=O)[O-])c2)c2ccccc2n1Cc1ccccc1 1.29%
CCOC(=O)c1c(NC(=O)C2CCCO2)sc2c1CCC2 (configuration not stated) -2.91%
CC(CN1CCCC1)OC(=O)COc1ccccc1 (configuration not stated) 0.818%
COc1ccc2c(C(=O)NCCCCO)c(-c3ccc(S(C)(=O)=O)cc3)sc2c1 -2.45%
O=C(Nc1nncs1)c1ccc2c(c1)OCO2 -2.22%
COc1ccc(C(=O)NC2CC3CCCC(C2)N3Cc2ccccc2)cc1 (configuration not stated) -2.69%
CCCN(C(=O)Cc1ccc(S(=O)(=O)N2CCOCC2)s1)c1c(N)n(Cc2ccccc2)c(=O)[nH]c1=O 7.73%
CCOc1ccc(NC(=O)CN(C)CC(=O)Nc2cc(Cl)ccc2C#N)cc1OCC 3.1%
Cc1ccc(/C=N/NC(=O)c2ccc(C(=O)N/N=C/c3ccc(C)s3)o2)s1 2.44%
Cc1cc(-c2n[nH]c(=S)o2)c(C)n1-c1ccccc1 0.78%
Cn1c(/N=C/c2cc(Cl)ccc2O)nc2ccccc21 4.98%
CCOC(=O)CNC(=O)CNC(=O)c1ccc(OC)cc1 2.12%
O=C(NCCCn1ccnc1)c1cc2c(ccc3ccccc32)o1 4.32%
Cc1ccc(-n2c3nc(=O)[nH]c(=O)c-3cc3c(C)nn(-c4ccccc4)c32)c(C)c1 1.15%
CC1=NN(c2ccc(C)cc2C)C(=O)C1C(c1ccccc1)C1C(=O)N(c2ccc(C)cc2C)N=C1C (configuration not stated) -6.09%
N#Cc1cc(-c2ccccc2)nnc1Sc1ccccc1 -0.75%
C#CC[N+]1(CC#Cc2ccc(C#CC[N+]3(CC#C)CCOCC3)cc2)CCOCC1 -1.43%
COC(=O)[C@]1(C)N[C@H](CN(C)S(=O)(=O)c2ccc(F)cc2)[C@@H]2C(=O)N(C)C(=O)[C@@H]21 -2.49%
CCCCC(=O)NC(Nc1nc(C2CC2)cs1)(C(=O)OCC)C(F)(F)F (configuration not stated) -2.43%
O=[N+]([O-])c1ccccc1/C=C/C=N/n1c(-c2ccc(Cl)cc2)n[nH]c1=S 4.39%
Cc1ccc(S(=O)(=O)N(C)C[C@@H]2Oc3ccc(NC(=O)Cn4cnnn4)cc3C(=O)N([C@@H](C)CO)C[C@H]2C)cc1 8.93%
CCNc1oc(-c2cccc3ccccc23)nc1C#N 4.21%
CCCCn1c(N)c(N(CC)C(=O)c2ccco2)c(=O)[nH]c1=O 5.45%
CCCc1c(NC(=O)Nc2ccc(F)cc2)cnn1-c1ccccc1 0.307%
O=C(Nc1ccccc1)Nc1ccc(S(=O)(=O)N2CCCCC2)cc1 0.678%
Cc1cnc(NC(=O)c2ccc(-c3nc4ccccc4s3)o2)s1 1.03%
O=C(O)c1ccccc1OCCOc1ccccc1C(=O)O -3.99%
CCC/C(=N\NC(=O)c1csc(C)c1C)c1cccs1 7.79%
COc1ccc(CCNC(=O)COC(=O)c2ccc(Br)o2)cc1 -0.655%
Cc1cccc2cc(C#N)c(SCCN3CCCCC3)nc12 -1.34%
OC(COc1ccc2ccccc2c1Br)Cn1cnc(-c2ccccc2)c1 (configuration not stated) -1.19%
CCN(C[C@H]1N[C@@](C)(C(=O)OC)[C@H]2C(=O)N(Cc3ccccc3)C(=O)[C@@H]12)C(=O)Nc1ccc(F)cc1 7.96%
O=C(N1CCN(c2ccccc2)CC1)C12CC3CC(CC(C3)C1)C2 -4.71%
C[C@H](N)c1nnc(SCC(=O)N(C)C)o1 -0.346%
CC(OC(=O)CN1C(=O)COc2ccccc21)C(=O)NCc1ccc(F)cc1 (configuration not stated) 2.45%
N#CC1(NC(=O)Cn2ncc(Cl)c(Cl)c2=O)CCCCC1 0.808%
CCc1ccc(NC(=O)CSc2nnc(CNC(=O)c3c(F)cccc3Cl)o2)cc1 7.33%
COc1ccc2c(c1)OC[C@H]1[C@H]2N2C(=O)CNC(=O)[C@@]2(C)[C@H]1c1ccccc1 0.491%
C[C@@H]1CN([C@@H](C)CO)C(=O)c2cc(NC(=O)Nc3ccc4c(c3)OCO4)ccc2O[C@H]1CN(C)S(=O)(=O)c1ccc(F)cc1 -2.55%
CCOC(=O)CCCCCC(=O)Nc1ccc2c(c1)CC(=O)N([C@H](C)CO)C[C@@H](C)[C@H](CN(C)Cc1ccc3c(c1)OCO3)O2 2.36%
Cc1cc(C)c(OCC(=O)Nc2ccc(NC(=O)c3ccco3)cc2)c([N+](=O)[O-])c1 0.0706%
CCCc1nn2c(=O)cc(CSCC(=O)Nc3ccccc3)nc2s1 -2.93%
Cc1ccccc1NS(=O)(=O)c1ccc(C(=O)NCC(c2ccco2)N(C)C)cc1 (configuration not stated) -1.49%
O=[N+]([O-])c1cc(Cl)ccc1Nc1ccccc1 -4.84%
O=C1c2ccccc2C(=O)N1CCC(c1ccccc1)c1ccco1 (configuration not stated) -4.09%
Cc1ccc([N+](=O)[O-])cc1N=C(c1cccc([N+](=O)[O-])c1)N1CCOCC1 -0.442%
COC(=O)c1cc(OC)c(OC)cc1NC(=O)Cn1nnc(-c2ccccc2Cl)n1 -4.43%
CCCOC(=O)c1ccc(-c2ccc(C=O)o2)cc1 -1.74%
CS(=O)(=O)N(CCc1ccccc1)CC(=O)NCc1ccc(Cl)cc1 1.47%

Molecules listed so far that contain a halogen, in the order listed:
Activity change, negative = inhibition, inactive:
O=C(Cc1ccccc1Cl)NC1(O)C(=O)c2ccccc2C1=O 3%
CCOC(=O)C1=C(C)NC(=O)NC1c1ccc(Br)s1 (configuration not stated) -9.77%
Cc1ccc(S(=O)(=O)N2[C@@H](c3ccc(Br)cc3)C(C(=O)O)=C[C@H]2CC2CCCC2)cc1 1.88%
CCc1ccc(-c2nc(CN3CCC(C(=O)NCc4ccc(F)cc4)CC3)c(C)o2)cc1 1.84%
COc1ccc(CCN=C(NS(=O)(=O)c2ccc(Cl)cc2)c2ccccc2)cc1 3.62%
CCOC(=O)N1CCN(c2ccc(F)cc2[N+](=O)[O-])CC1 -1.33%
Fc1cccc(F)c1/C=N/N1CCOCC1 -1.31%
CC1=C(C#N)C(Nc2ccc(C)cn2)(C(F)(F)F)C(=O)N1 (configuration not stated) 1.89%
CC1Oc2ccccc2N(Cc2ccccc2Cl)C1=O (configuration not stated) -1.07%
CCOc1ccc(NC(=O)CN(C)CC(=O)Nc2cc(Cl)ccc2C#N)cc1OCC 3.1%
Cn1c(/N=C/c2cc(Cl)ccc2O)nc2ccccc21 4.98%
COC(=O)[C@]1(C)N[C@H](CN(C)S(=O)(=O)c2ccc(F)cc2)[C@@H]2C(=O)N(C)C(=O)[C@@H]21 -2.49%
CCCCC(=O)NC(Nc1nc(C2CC2)cs1)(C(=O)OCC)C(F)(F)F (configuration not stated) -2.43%
O=[N+]([O-])c1ccccc1/C=C/C=N/n1c(-c2ccc(Cl)cc2)n[nH]c1=S 4.39%
CCCc1c(NC(=O)Nc2ccc(F)cc2)cnn1-c1ccccc1 0.307%
COc1ccc(CCNC(=O)COC(=O)c2ccc(Br)o2)cc1 -0.655%
OC(COc1ccc2ccccc2c1Br)Cn1cnc(-c2ccccc2)c1 (configuration not stated) -1.19%
CCN(C[C@H]1N[C@@](C)(C(=O)OC)[C@H]2C(=O)N(Cc3ccccc3)C(=O)[C@@H]12)C(=O)Nc1ccc(F)cc1 7.96%
CC(OC(=O)CN1C(=O)COc2ccccc21)C(=O)NCc1ccc(F)cc1 (configuration not stated) 2.45%
N#CC1(NC(=O)Cn2ncc(Cl)c(Cl)c2=O)CCCCC1 0.808%
CCc1ccc(NC(=O)CSc2nnc(CNC(=O)c3c(F)cccc3Cl)o2)cc1 7.33%
C[C@@H]1CN([C@@H](C)CO)C(=O)c2cc(NC(=O)Nc3ccc4c(c3)OCO4)ccc2O[C@H]1CN(C)S(=O)(=O)c1ccc(F)cc1 -2.55%
O=[N+]([O-])c1cc(Cl)ccc1Nc1ccccc1 -4.84%
COC(=O)c1cc(OC)c(OC)cc1NC(=O)Cn1nnc(-c2ccccc2Cl)n1 -4.43%
CS(=O)(=O)N(CCc1ccccc1)CC(=O)NCc1ccc(Cl)cc1 1.47%
